Test results taken from patent US20150139982A1.
Numbering of substitutions follows the chain as printed. These are yes or no findings as the source states them, for the method shown. Some entries that bind do so weakly or less than the wild type. Sequences can lack the tags named with a protein.

T1: Fc-Siglec-15 fusion protein (Homo sapiens (Human)) (UniProt Q6ZMC9)
T1 sequence: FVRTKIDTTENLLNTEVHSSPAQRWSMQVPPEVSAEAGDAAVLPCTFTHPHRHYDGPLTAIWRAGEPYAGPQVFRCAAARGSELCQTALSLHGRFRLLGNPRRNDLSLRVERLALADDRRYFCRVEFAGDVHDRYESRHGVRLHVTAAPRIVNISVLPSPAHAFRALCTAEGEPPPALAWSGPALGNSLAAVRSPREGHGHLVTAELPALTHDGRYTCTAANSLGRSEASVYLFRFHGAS

B1: chimeric 25D8 IgG2 (antibody, V domains shown)
VH: QVQVQQPGAELVKPGASVKLSCKASGYTFTSYWMHWVKQRPGQGLEWIGLINPSNARTNYNEKFNTKATLTVDKSSSTAYMQLSSLTSEDSAVYYCARGGDGDYFDYWGQGTTLTVSS
VL: DIVMTQAAFSNPVTLGTSASISCRSSKSLLHSNGITYLYWYLQKPGQSPQLLIYQMSNLASGVPDRFSSSGSGTDFTLRISRVEAEDVGVYYCAQNLELPYTFGGGTKLEIKR
B2: mouse 25D8 monoclonal antibody (antibody, V domains shown)
VH: B1 VH
VL: DIVMTQAAFSNPVTLGTSASISCRSSKSLLHSNGITYLYWYLQKPGQSPQLLIYQMSNLASGVPDRFSSSGSGTDFTLRISRVEAEDVGVYYCAQNLELPYTFGGGTKLEIK
B3: humanized 25D8 IgG2 antibody (antibody, V domains shown)
VH: QVQLQQSGAEVKKPGSSVKVSCKASGYTFTSYWMHWVRQAPGQGLEWMGLINPSNARTNYNEKFNTRVTITADKSTSTAYMELSSLRSEDTAVYYCARGGDGDYFDYWGQGTTVTVSS
VL: B1 VL with A7T, A8P, F9L, N11L, L15P, T17E, S18P, S69G, R79K, L109V
B4: humanized 25E9 L1H1 IgG2 variant (antibody)
light: DIVMTQSPLSLPVTPGEPASISCRSTKSLLHSNGNTYLYWYLQKPGQSPQLLIYRMSNLASGVPDRFSGSGSGTDFTLKISRVEAEDVGVYYCMQHLEYPFTFGGGTKVEIKRTVAAPSVFIFPPSDEQLKSGTASVVCLLNNFYPREAKVQWKVDNALQSGNSQESVTEQDSKDSTYSLSSTLTLSKADYEKHKVYACEVTHQGLSSPVTKSFNRGEC
heavy: EIQLQQSGAEVKKPGSSVKVSCKASGYTFTDYDMHWVRQAPGQGLEWMGTIDPETGGTAYNQKFKGRVTITADKSTSTAYMELSSLRSEDTAVYYCTSFYYTYSNYDVGFAYWGQGTLVTVSSASTKGPSVFPLAPCSRSTSESTAALGCLVKDYFPEPVTVSWNSGALTSGVHTFPAVLQSSGLYSLSSVVTVPSSNFGTQTYTCNVDHKPSNTKVDKTVERKCCVECPPCPAPPVAGPSVFLFPPKPKDTLMISRTPEVTCVVVDVSHEDPEVQFNWYVDGVEVHNAKTKPREEQFNSTFRVVSVLTVVHQDWLNGKEYKCKVSNKGLPAPIEKTISKTKGQPREPQVYTLPPSREEMTKNQVSLTCLVKGFYPSDIAVEWESNGQPENNYKTTPPMLDSDGSFFLYSKLTVDKSRWQQGNVFSCSVMHEALHNHYTQKSLSLSPGK
B5: chimeric 25E9 IgG2 (antibody, V domains shown)
VH: EIQLQQSGVELVRPGASVTLSCKASGYTFTDYDMHWVKQTPVHGLEWIGTIDPETGGTAYNQKFKGKATLTADRSSTTAYMELSSLTSEDSAVYYCTSFYYTYSNYDVGFAYWGQGTLVTVSA
VL: DIVMTQAAPSVPVTPGESVSISCRSTKSLLHSNGNTYLYWFLQRPGQSPQLLIYRMSNLASGVPDRFSGSGSGTAFTLRISRVEAEDVGVYYCMQHLEYPFTFGGGTKLEIKR
B6: mouse 25E9 monoclonal antibody (antibody, V domains shown)
VH: B5 VH
VL: DIVMTQAAPSVPVTPGESVSISCRSTKSLLHSNGNTYLYWFLQRPGQSPQLLIYRMSNLASGVPDRFSGSGSGTAFTLRISRVEAEDVGVYYCMQHLEYPFTFGGGTKLEIK

How the values were obtained:
[1] = molecular target: T1, Fc-Siglec-15 fusion protein (Homo sapiens (Human)); test: SPR, Fc-Siglec-15 immobilized on the chip, antibody (cell supernatant or purified) flowed over it
[2] = molecular target: T1, Fc-Siglec-15 fusion protein (Homo sapiens (Human)); test: SPR, Fc-Siglec-15 immobilized, antibody injected
[3] = molecular target: T1, Fc-Siglec-15 fusion protein (Homo sapiens (Human)); test: SPR, Fc-Siglec-15 immobilized on the chip, purified antibody flowed over it
[4] = molecular target: T1, Fc-Siglec-15 fusion protein (Homo sapiens (Human)); test: SPR, Fc-Siglec-15 immobilized on the chip, antibody in cell supernatant flowed over it

| Binder | binding [1] | binding [2] | binding [3] | binding [4] |
| --- | --- | --- | --- | --- |
| B1 | binds | binds | – | – |
| B2 | – | binds | binds | – |
| B3 | – | binds | – | binds |
| B4 | – | binds | – | binds |
| B5 | binds | binds | – | – |
| B6 | – | binds | binds | – |
